± gives the standard deviation of the averaged measurements. The list shows a part of the results.
Compound: Nc1nc2c(ncn2[C@@H]2O[C@H](COP(=O)(O)OP(=O)(O)OP(=O)(O)O)[C@@H](O)[C@H]2O)c(=O)[nH]1 [guanosine triphosphate]
Assay: NP40-soluble protein abundance relative to vehicle (solubility fold change) (ratio); higher = more soluble protein in presence of GTP
In short: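 Jurkat crude lysate prepared with a Dounce homogeniser was treated at eight concentrations spanning 0.1 to 10 mM, 10 min at room temperature then 3 min at 37 °C. Solubilisation with 0.8% NP40 and benzonase and ultracentrifugation preceded TMT labelling of the supernatant for LC-MS/MS. Fold change against the detergent-processed vehicle was determined per replicate from vsn-normalised intensities, across three independent experiments.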

Protein sequences, listed by entry. Tags and fused reporters are not part of them. Lines headed by an entry give the natural chain unless they say otherwise; changes in a name come on top.
UniProt Q8IYB7: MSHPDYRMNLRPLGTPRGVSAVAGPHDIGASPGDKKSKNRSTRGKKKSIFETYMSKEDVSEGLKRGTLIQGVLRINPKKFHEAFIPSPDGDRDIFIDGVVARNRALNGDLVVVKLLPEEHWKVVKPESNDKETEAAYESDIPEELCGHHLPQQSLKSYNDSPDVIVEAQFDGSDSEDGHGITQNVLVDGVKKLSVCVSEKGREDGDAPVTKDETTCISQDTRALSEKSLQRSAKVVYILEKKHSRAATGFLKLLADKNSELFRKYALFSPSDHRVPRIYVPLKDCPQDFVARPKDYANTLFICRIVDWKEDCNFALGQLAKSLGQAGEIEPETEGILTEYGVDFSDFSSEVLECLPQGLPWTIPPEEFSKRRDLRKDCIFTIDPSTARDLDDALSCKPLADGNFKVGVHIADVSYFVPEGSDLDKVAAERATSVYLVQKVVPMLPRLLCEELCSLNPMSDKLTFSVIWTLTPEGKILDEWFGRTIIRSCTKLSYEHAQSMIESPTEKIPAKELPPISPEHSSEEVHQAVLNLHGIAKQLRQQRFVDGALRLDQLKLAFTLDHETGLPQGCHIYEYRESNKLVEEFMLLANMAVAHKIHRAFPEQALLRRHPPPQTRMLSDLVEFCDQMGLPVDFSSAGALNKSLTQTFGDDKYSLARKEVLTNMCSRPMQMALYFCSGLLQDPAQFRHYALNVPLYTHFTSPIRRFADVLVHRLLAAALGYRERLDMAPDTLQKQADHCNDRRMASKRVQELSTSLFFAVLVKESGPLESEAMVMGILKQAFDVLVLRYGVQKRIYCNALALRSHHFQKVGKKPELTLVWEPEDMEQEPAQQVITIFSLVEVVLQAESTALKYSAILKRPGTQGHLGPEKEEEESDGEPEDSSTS
UniProt Q8IYA6: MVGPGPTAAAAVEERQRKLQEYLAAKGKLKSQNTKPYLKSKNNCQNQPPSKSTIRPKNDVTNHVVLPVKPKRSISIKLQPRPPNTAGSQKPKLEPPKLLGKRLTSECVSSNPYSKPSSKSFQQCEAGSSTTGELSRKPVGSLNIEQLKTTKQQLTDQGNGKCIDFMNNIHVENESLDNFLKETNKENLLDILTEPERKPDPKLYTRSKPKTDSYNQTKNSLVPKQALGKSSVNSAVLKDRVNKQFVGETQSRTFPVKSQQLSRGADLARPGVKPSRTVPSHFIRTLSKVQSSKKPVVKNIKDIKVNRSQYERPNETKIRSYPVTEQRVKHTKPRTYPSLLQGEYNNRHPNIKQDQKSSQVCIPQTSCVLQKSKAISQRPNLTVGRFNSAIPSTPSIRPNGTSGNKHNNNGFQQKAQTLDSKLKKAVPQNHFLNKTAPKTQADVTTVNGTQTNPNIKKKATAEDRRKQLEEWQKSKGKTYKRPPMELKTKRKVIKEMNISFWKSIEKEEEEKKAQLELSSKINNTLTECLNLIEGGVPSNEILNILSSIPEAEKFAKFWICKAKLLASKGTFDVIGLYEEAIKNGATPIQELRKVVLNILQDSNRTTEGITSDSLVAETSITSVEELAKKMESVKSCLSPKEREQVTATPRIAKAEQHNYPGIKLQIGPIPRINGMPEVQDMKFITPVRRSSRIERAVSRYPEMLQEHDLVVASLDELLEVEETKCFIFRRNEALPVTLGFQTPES
UniProt Q8TCS8: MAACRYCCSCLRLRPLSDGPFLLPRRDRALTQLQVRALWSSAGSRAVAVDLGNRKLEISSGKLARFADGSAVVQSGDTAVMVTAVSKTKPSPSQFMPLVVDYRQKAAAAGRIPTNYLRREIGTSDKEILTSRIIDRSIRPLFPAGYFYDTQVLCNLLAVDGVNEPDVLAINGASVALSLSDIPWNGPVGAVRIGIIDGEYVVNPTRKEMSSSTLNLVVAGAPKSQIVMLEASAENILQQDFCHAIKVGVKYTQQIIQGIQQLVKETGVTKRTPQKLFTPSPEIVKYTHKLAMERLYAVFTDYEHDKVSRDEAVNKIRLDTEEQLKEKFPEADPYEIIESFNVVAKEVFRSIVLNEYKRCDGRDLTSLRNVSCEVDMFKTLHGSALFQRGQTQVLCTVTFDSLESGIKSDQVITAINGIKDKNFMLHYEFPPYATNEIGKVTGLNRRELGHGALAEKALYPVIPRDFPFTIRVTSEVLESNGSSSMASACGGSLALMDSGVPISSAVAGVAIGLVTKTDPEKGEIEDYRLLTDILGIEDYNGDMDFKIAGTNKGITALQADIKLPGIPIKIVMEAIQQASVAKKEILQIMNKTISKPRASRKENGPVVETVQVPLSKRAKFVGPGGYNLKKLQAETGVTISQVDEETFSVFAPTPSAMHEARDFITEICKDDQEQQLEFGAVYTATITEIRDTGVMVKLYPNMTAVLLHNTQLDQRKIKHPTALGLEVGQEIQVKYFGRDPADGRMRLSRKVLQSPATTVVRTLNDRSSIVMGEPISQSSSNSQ
UniProt Q8ND56: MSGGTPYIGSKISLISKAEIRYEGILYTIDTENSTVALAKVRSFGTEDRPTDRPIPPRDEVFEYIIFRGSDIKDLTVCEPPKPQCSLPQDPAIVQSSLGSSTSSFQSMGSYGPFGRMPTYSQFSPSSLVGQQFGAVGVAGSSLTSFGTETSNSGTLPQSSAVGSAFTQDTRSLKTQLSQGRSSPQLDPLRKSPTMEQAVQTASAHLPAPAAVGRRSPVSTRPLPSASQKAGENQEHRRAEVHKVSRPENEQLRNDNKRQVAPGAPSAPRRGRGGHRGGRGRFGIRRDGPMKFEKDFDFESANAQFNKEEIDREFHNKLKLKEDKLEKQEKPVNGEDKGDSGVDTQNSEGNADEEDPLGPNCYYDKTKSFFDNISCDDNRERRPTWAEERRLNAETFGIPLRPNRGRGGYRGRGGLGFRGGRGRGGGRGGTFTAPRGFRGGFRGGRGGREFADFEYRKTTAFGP
UniProt Q86Y56: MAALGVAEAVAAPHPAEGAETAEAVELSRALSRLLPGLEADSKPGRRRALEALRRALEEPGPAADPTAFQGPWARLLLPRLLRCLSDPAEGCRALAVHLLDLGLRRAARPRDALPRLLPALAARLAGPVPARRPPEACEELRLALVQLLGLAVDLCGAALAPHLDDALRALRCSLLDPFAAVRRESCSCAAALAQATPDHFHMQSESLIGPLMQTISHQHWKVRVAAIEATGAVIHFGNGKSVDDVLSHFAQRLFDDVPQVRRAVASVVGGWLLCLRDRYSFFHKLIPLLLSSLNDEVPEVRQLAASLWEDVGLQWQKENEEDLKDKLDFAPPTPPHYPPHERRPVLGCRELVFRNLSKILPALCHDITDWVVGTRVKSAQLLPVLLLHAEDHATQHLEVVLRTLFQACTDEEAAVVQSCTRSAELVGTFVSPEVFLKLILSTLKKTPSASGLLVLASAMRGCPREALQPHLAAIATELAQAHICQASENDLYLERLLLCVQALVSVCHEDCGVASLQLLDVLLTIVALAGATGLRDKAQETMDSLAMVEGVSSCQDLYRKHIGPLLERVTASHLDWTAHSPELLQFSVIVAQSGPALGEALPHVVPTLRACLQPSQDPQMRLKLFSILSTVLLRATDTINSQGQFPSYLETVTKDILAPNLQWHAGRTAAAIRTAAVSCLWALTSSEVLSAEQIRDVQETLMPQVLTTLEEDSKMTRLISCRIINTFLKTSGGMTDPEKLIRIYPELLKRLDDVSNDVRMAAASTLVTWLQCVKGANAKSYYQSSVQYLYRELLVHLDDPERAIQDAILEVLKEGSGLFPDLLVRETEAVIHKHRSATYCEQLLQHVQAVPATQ
UniProt Q8NEF9: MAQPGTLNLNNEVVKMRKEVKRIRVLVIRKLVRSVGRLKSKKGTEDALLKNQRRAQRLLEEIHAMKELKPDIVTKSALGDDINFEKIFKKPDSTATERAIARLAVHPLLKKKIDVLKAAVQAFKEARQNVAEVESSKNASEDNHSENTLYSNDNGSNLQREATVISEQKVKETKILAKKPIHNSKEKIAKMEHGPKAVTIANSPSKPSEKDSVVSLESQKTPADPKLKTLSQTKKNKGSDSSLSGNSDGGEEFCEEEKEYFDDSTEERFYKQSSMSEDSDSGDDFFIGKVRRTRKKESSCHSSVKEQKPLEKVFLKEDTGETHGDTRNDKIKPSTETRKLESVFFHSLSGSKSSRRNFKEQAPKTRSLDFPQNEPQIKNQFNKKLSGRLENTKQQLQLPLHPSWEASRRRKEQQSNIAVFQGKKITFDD
UniProt Q8IUH4: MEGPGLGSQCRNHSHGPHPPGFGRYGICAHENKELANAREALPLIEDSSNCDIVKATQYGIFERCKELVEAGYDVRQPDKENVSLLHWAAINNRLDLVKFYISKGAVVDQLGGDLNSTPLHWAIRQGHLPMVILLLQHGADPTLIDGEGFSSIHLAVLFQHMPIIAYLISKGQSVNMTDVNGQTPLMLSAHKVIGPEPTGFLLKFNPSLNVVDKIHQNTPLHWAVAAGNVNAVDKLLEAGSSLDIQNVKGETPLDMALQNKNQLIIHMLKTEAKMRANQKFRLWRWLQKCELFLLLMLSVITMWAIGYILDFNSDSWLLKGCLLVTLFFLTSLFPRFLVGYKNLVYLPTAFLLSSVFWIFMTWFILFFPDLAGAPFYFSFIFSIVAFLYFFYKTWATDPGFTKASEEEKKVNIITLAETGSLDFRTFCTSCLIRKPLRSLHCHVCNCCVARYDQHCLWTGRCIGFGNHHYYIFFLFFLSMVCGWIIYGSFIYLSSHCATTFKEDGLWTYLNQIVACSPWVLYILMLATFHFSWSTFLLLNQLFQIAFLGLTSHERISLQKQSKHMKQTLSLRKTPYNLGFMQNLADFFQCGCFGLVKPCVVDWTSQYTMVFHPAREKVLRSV
UniProt Q8TB72: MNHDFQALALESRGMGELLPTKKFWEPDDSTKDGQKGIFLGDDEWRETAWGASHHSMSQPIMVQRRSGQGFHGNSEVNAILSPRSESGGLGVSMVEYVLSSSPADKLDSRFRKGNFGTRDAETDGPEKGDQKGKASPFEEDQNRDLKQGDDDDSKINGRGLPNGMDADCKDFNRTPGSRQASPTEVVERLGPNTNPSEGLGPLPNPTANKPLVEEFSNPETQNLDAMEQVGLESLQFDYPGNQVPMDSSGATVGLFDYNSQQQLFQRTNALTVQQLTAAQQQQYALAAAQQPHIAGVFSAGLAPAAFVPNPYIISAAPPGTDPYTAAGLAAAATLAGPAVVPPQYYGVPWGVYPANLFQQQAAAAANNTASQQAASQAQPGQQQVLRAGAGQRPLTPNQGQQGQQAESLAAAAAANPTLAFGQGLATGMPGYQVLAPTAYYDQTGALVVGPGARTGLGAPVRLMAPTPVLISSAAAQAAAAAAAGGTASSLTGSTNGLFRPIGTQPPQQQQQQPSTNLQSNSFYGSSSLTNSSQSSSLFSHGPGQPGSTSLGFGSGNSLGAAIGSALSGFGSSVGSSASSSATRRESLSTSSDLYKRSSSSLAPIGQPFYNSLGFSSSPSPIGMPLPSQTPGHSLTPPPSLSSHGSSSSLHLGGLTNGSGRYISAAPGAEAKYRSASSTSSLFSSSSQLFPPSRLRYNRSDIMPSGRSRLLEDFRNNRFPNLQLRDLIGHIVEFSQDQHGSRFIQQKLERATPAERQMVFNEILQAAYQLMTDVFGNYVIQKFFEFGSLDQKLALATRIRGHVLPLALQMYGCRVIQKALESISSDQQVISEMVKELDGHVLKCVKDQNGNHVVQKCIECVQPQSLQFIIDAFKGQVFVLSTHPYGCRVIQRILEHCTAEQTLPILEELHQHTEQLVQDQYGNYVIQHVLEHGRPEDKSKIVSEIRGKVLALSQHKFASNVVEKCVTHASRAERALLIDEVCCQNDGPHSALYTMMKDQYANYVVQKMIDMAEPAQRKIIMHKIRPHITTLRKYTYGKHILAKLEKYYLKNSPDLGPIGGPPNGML
UniProt Q8IYD1, whole entry: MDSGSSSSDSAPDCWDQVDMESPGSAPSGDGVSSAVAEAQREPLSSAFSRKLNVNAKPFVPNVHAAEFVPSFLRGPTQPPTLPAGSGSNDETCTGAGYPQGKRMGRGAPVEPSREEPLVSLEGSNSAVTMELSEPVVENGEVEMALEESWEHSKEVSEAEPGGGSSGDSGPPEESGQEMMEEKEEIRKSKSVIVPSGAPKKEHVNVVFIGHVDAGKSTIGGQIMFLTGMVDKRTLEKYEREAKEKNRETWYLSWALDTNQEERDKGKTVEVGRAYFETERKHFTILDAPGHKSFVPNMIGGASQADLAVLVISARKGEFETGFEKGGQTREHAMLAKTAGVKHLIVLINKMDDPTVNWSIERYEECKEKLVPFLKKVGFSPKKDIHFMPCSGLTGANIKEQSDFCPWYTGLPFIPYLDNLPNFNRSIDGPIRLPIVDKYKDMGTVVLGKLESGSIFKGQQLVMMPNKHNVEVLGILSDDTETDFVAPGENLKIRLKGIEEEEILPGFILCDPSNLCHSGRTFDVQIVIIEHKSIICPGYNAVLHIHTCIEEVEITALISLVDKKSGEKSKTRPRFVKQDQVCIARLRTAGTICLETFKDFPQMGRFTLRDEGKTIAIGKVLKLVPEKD

Target	NP40-soluble protein abundance (concentration: 0.1mM)	NP40-soluble protein abundance (concentration: 0.5mM)	NP40-soluble protein abundance (concentration: 1mM)	NP40-soluble protein abundance (concentration: 2mM)	NP40-soluble protein abundance (concentration: 4mM)	NP40-soluble protein abundance (concentration: 6mM)	NP40-soluble protein abundance (concentration: 8mM)	NP40-soluble protein abundance (concentration: 10mM)
UniProt Q8NCA5 and related entries	0.933 ± 0.056	0.95 ± 0.099	0.994 ± 0.04	1.1 ± 0.092	1.32 ± 0.11	1.39 ± 0.17	1.45 ± 0.23	1.73 ± 0.23
TOR1AIP2 (UniProt Q8NFQ8)	0.76 ± 0.027	0.805 ± 0.066	0.809 ± 0.042	0.872 ± 0.043	0.742 ± 0.066	0.872 ± 0.084	0.756 ± 0.034	0.907 ± 0.047
UniProt Q8N9R8 and related entries	1.08 ± 0.048	1.06 ± 0.11	1.04 ± 0.044	1.07 ± 0.073	1.1 ± 0.07	1.04 ± 0.08	1.05 ± 0.072	1.06 ± 0.039
UniProt Q8IYB7 and related entries	1.04 ± 0.038	1.04 ± 0.035	0.993 ± 0.043	1.03 ± 0.033	0.976 ± 0.025	0.94 ± 0.023	0.978 ± 0.033	0.951 ± 0.043
CKAP2L (UniProt Q8IYA6)	1.08 ± 0.13	1.06 ± 0.077	1.19 ± 0.13	1.19 ± 0.077	1.33 ± 0.24	1.32 ± 0.15	1.54 ± 0.16	1.72 ± 0.29
UniProt Q8N0X4 and related entries	1.21 ± 0.1	1.075 ± 0.0048	1.17 ± 0.055	1.08 ± 0.049	1.08 ± 0.057	1.04 ± 0.08	1.06 ± 0.037	1.04 ± 0.052
PNPT1 (UniProt Q8TCS8)	1.07 ± 0.023	1.02 ± 0.05	1 ± 0.024	1.01 ± 0.042	1 ± 0.06	0.969 ± 0.038	0.978 ± 0.03	0.923 ± 0.03
LSM14A (UniProt Q8ND56)	0.953 ± 0.052	0.934 ± 0.087	0.98 ± 0.074	0.947 ± 0.097	0.952 ± 0.1	0.954 ± 0.11	0.982 ± 0.072	0.995 ± 0.081
UniProt Q8NFF5 and related entries	0.957 ± 0.049	0.924 ± 0.06	0.944 ± 0.012	0.893 ± 0.057	0.834 ± 0.024	0.932 ± 0.016	0.852 ± 0.029	0.855 ± 0.045
UniProt Q86Y56	1.06 ± 0.022	1.04 ± 0.022	0.985 ± 0.055	0.978 ± 0.035	0.961 ± 0.078	0.959 ± 0.065	0.953 ± 0.072	0.921 ± 0.075
UniProt Q8TDD1 and related entries	1.03 ± 0.0051	1.03 ± 0.042	1.07 ± 0.04	1.13 ± 0.024	1.234 ± 0.0045	1.3 ± 0.035	1.35 ± 0.032	1.53 ± 0.033
SRFBP1 (UniProt Q8NEF9)	0.947 ± 0.019	0.897 ± 0.064	1.01 ± 0.038	1.03 ± 0.083	1.06 ± 0.072	1.04 ± 0.09	1.02 ± 0.12	1.1 ± 0.055
UniProt Q8IZM8	1.08 ± 0.016	1.12 ± 0.044	1.1 ± 0.023	1.08 ± 0.087	0.975 ± 0.028	1.03 ± 0.022	1.11 ± 0.047	1.08 ± 0.036
ZADH2 (UniProt Q8N4Q0)	0.997 ± 0.043	1.01 ± 0.091	0.951 ± 0.02	0.963 ± 0.056	0.932 ± 0.041	0.9 ± 0.041	0.947 ± 0.084	0.887 ± 0.048
ZDHHC13 (UniProt Q8IUH4)	1.09 ± 0.064	1.06 ± 0.086	1.01 ± 0.053	1.01 ± 0.08	0.993 ± 0.056	0.964 ± 0.091	0.982 ± 0.075	0.939 ± 0.082
UniProt Q8NEB9	0.995 ± 0.041	1.01 ± 0.024	0.999 ± 0.02	1.01 ± 0.03	1.01 ± 0.029	0.992 ± 0.048	0.969 ± 0.045	0.941 ± 0.054
DCUN1D3 (UniProt Q8IWE4)	0.968 ± 0.12	0.987 ± 0.099	1.01 ± 0.14	0.951 ± 0.1	0.937 ± 0.11	0.95 ± 0.1	0.919 ± 0.12	0.861 ± 0.12
NUBPL (UniProt Q8TB37)	1 ± 0.055	1.02 ± 0.036	0.959 ± 0.04	0.964 ± 0.047	0.945 ± 0.042	0.947 ± 0.053	0.911 ± 0.017	0.936 ± 0.045
UniProt Q8TB72 and related entries	1.03 ± 0.032	0.99 ± 0.023	0.999 ± 0.015	0.959 ± 0.029	0.987 ± 0.011	0.944 ± 0.02	0.965 ± 0.015	0.942 ± 0.047
GSPT2 (UniProt Q8IYD1)	0.956 ± 0.071	0.978 ± 0.061	0.933 ± 0.07	0.925 ± 0.065	0.901 ± 0.086	0.907 ± 0.056	0.903 ± 0.06	0.899 ± 0.067
DTX3L (UniProt Q8TDB6)	1.04 ± 0.03	1.055 ± 0.009	1.04 ± 0.025	1.03 ± 0.024	1.08 ± 0.018	1.09 ± 0.016	1.12 ± 0.028	1.1 ± 0.037
UniProt Q8NB15-2	1.04 ± 0.17	1.03 ± 0.12	1.03 ± 0.15	1.04 ± 0.19	0.989 ± 0.13	0.949 ± 0.13	1 ± 0.16	0.965 ± 0.17
UniProt Q8IXQ6 and related entries	1.01 ± 0.25	1.05 ± 0.2	1.01 ± 0.12	1.09 ± 0.22	1.06 ± 0.2	1.03 ± 0.18	0.981 ± 0.28	0.95 ± 0.043
UniProt Q8IY17 and related entries	1.0469 ± 0.00053	1.064 ± 0.0081	1.02 ± 0.15	1.04 ± 0.078	0.929 ± 0.19	1.0267 ± 0.00057	1 ± 0.013	1.031 ± 0.0086
VPS52 (UniProt Q8N1B4)	1.04 ± 0.034	1.126 ± 0.0098	1.02 ± 0.068	0.998 ± 0.099	0.992 ± 0.13	0.969 ± 0.06	0.957 ± 0.074	0.931 ± 0.091
UniProt Q8N122 and related entries	1.04 ± 0.041	1.05 ± 0.071	1.02 ± 0.082	0.987 ± 0.09	1.02 ± 0.096	1.03 ± 0.09	0.976 ± 0.084	0.957 ± 0.067
UniProt Q8N999 and related entries	0.999 ± 0.092	1.04 ± 0.09	0.957 ± 0.066	0.983 ± 0.044	0.929 ± 0.07	0.977 ± 0.049	0.949 ± 0.09	0.927 ± 0.041
D2HGDH (UniProt Q8N465)	0.973 ± 0.066	0.956 ± 0.051	0.914 ± 0.096	0.968 ± 0.024	0.972 ± 0.034	0.94 ± 0.052	0.923 ± 0.049	0.852 ± 0.096
EHBP1L1 (UniProt Q8N3D4)	1.08 ± 0.084	1.06 ± 0.061	1.13 ± 0.15	1.07 ± 0.087	1.02 ± 0.14	1.04 ± 0.15	1.09 ± 0.099	1.09 ± 0.13
UniProt Q86X55 and related entries	1.04 ± 0.098	1.04 ± 0.11	0.975 ± 0.062	1 ± 0.13	1.01 ± 0.11	0.981 ± 0.075	0.919 ± 0.032	0.906 ± 0.078

Part of the list above, as comma-separated lines:
Target,NP40-soluble protein abundance (concentration: 0.1mM),NP40-soluble protein abundance (concentration: 0.5mM),NP40-soluble protein abundance (concentration: 1mM),NP40-soluble protein abundance (concentration: 2mM),NP40-soluble protein abundance (concentration: 4mM),NP40-soluble protein abundance (concentration: 6mM),NP40-soluble protein abundance (concentration: 8mM),NP40-soluble protein abundance (concentration: 10mM)
TOR1AIP2 (UniProt Q8NFQ8),0.76 ± 0.027,0.805 ± 0.066,0.809 ± 0.042,0.872 ± 0.043,0.742 ± 0.066,0.872 ± 0.084,0.756 ± 0.034,0.907 ± 0.047
LSM14A (UniProt Q8ND56),0.953 ± 0.052,0.934 ± 0.087,0.98 ± 0.074,0.947 ± 0.097,0.952 ± 0.1,0.954 ± 0.11,0.982 ± 0.072,0.995 ± 0.081
UniProt Q86Y56,1.06 ± 0.022,1.04 ± 0.022,0.985 ± 0.055,0.978 ± 0.035,0.961 ± 0.078,0.959 ± 0.065,0.953 ± 0.072,0.921 ± 0.075
UniProt Q8IZM8,1.08 ± 0.016,1.12 ± 0.044,1.1 ± 0.023,1.08 ± 0.087,0.975 ± 0.028,1.03 ± 0.022,1.11 ± 0.047,1.08 ± 0.036
DCUN1D3 (UniProt Q8IWE4),0.968 ± 0.12,0.987 ± 0.099,1.01 ± 0.14,0.951 ± 0.1,0.937 ± 0.11,0.95 ± 0.1,0.919 ± 0.12,0.861 ± 0.12
GSPT2 (UniProt Q8IYD1),0.956 ± 0.071,0.978 ± 0.061,0.933 ± 0.07,0.925 ± 0.065,0.901 ± 0.086,0.907 ± 0.056,0.903 ± 0.06,0.899 ± 0.067
UniProt Q8NB15-2,1.04 ± 0.17,1.03 ± 0.12,1.03 ± 0.15,1.04 ± 0.19,0.989 ± 0.13,0.949 ± 0.13,1 ± 0.16,0.965 ± 0.17
UniProt Q8N122 and related entries,1.04 ± 0.041,1.05 ± 0.071,1.02 ± 0.082,0.987 ± 0.09,1.02 ± 0.096,1.03 ± 0.09,0.976 ± 0.084,0.957 ± 0.067
UniProt Q86X55 and related entries,1.04 ± 0.098,1.04 ± 0.11,0.975 ± 0.062,1 ± 0.13,1.01 ± 0.11,0.981 ± 0.075,0.919 ± 0.032,0.906 ± 0.078

From the supplement of paper PMC6411743
